According to patent publication US20050010028A1 (KEIO UNIVERSITY, published 2005):
Results are given in words; binding and its absence hold for the method and conditions named. Some results given as binding are weak or reduced against the parent protein; the word gives no strength.

Amino acid sequences for entries named in this document (tags omitted). A change or cut given only in a name is not applied to a line headed by its entry. Chains listed by the source or under a name are the forms on record and can include a tag or linker. Residues count along the entry.
UniProt P05627, residues 216-318: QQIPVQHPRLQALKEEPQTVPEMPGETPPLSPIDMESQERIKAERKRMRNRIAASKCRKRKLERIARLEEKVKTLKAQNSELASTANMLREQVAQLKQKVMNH
Fos modified with TAMRA-dC-puromycin (Modifying agent 19) (P01101, form named): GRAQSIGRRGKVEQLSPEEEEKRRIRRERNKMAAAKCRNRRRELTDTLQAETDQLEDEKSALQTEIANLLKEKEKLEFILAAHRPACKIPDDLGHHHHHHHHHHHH

Legend:
[1] = target: streptavidin-fused Jun protein (Streptomyces avidinii; mouse) (UniProt P05627); assay: protein microarray: STA-Jun on a biotin plate, labelled Fos in solution, fluorescence scan
[2] = target: streptavidin-fused Jun protein (Streptomyces avidinii; mouse) (UniProt P05627); assay: protein microarray: STA-Jun on a biotin-coated slide, labelled Fos in solution, fluorescence scan

“Fos modified with TAMRA-dC-puromycin (Modifying agent 19) (from UniProt P01101 118-211)” was tested, and the binding [1] was “binds” and the binding [2] was “binds”.
